Measurements as given in PMC5808637.
Results are given in words; binding and its absence hold for the method and conditions named. Binding seen in cells or lysates may run through a third protein. Some entries that bind do so weakly or less than the wild type. For some of these results: Where a sequence is shown, tags or fusion partners need not be part of it.

Amino acid sequences for entries named in this document (tags omitted). A change or cut given only in a name is not applied to a line headed by its entry.
UniProt Q9Y496: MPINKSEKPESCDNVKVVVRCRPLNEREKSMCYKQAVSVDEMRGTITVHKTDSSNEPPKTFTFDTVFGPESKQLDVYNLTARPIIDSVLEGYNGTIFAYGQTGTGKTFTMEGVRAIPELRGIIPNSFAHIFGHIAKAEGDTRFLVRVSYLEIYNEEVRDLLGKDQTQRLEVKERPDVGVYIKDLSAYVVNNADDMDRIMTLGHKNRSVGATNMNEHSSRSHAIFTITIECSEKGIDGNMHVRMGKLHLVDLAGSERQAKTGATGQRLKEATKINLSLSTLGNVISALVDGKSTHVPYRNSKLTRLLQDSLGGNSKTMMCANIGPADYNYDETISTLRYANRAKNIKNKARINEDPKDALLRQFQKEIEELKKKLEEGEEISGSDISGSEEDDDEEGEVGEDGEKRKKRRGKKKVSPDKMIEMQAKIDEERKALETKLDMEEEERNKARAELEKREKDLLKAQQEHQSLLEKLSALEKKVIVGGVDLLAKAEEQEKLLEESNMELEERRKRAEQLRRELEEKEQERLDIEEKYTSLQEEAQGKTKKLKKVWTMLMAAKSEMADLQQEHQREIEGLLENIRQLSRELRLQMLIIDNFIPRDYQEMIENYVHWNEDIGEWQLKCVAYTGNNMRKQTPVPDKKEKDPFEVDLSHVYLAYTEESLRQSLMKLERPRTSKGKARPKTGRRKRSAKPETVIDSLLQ
UniProt P36405: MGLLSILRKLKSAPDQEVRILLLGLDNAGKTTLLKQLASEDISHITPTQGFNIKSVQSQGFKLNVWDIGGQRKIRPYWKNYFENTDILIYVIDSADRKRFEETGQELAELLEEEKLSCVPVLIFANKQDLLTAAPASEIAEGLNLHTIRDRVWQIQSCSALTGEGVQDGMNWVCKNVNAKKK

Experiments:
[1] = biological target: full-length, human GFP-Kif3A (human) (UniProt Q9Y496); test: co-IP; reciprocal co-IPs from lysates of CHO cells co-transfected with two constructs; lysis buffer 25 mM Tris pH 7.5, 150 mM NaCl, 0.25% deoxycholate, 1% NP-40, 1 mM EDTA; Dynabeads Protein G with primary antibodies or GFP-Trap_M beads, 1 h at room temperature; Western blot
[2] = biological target: T1, human full-length V5-Kif7 (human) (UniProt Q2M1P5); test: as above
T1 sequence: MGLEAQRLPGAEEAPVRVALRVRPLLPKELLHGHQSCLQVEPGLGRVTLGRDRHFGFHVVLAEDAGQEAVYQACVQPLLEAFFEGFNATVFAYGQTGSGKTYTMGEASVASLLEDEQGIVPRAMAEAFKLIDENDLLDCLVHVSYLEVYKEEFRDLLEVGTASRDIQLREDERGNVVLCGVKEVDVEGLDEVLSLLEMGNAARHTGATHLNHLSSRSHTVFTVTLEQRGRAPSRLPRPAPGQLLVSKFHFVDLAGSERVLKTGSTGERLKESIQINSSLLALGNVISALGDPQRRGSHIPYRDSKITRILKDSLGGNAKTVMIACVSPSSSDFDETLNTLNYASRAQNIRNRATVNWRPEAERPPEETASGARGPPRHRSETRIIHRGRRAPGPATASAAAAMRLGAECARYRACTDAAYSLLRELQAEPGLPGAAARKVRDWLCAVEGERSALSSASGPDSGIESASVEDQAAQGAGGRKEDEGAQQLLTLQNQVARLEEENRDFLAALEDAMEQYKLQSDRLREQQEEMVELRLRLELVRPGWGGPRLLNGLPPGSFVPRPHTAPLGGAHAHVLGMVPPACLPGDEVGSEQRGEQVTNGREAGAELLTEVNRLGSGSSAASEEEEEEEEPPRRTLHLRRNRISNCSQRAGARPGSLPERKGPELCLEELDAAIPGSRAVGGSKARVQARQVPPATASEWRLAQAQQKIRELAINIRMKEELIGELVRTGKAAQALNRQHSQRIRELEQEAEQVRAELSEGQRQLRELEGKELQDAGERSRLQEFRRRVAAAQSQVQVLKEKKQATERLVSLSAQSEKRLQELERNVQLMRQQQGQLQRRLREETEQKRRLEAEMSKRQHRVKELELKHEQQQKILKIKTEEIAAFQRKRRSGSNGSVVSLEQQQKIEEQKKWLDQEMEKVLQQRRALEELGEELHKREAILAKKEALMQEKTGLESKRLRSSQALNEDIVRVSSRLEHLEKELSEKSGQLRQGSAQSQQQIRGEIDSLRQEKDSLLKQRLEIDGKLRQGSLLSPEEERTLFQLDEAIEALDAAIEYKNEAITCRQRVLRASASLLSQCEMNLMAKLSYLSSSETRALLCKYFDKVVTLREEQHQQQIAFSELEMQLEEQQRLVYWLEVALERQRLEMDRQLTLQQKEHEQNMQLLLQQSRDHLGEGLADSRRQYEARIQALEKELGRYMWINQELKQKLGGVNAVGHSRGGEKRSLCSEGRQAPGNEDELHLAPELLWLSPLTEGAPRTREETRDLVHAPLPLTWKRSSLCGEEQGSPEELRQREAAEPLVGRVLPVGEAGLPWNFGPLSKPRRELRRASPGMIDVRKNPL

binding [1]	binding [2]	Substance
no binding	no binding	Arl3-Q71L-myc (from UniProt P36405 1-182)
no binding	binds	Arl3-T31N-myc (from UniProt P36405 1-182)
